Data from PMC3171409.
Read-outs that look alike come from different tables or passages of the source. Results are given in words; binding and its absence hold for the method and conditions named. Binding seen in cells or lysates may run through a third protein. Some binding calls cover weakened binding; strength is not graded here. Where a sequence is shown, tags or fusion partners need not be part of it.

Sequences of proteins named here, by UniProt entry; tags and fusion partners are left off.
UniProt Q13546: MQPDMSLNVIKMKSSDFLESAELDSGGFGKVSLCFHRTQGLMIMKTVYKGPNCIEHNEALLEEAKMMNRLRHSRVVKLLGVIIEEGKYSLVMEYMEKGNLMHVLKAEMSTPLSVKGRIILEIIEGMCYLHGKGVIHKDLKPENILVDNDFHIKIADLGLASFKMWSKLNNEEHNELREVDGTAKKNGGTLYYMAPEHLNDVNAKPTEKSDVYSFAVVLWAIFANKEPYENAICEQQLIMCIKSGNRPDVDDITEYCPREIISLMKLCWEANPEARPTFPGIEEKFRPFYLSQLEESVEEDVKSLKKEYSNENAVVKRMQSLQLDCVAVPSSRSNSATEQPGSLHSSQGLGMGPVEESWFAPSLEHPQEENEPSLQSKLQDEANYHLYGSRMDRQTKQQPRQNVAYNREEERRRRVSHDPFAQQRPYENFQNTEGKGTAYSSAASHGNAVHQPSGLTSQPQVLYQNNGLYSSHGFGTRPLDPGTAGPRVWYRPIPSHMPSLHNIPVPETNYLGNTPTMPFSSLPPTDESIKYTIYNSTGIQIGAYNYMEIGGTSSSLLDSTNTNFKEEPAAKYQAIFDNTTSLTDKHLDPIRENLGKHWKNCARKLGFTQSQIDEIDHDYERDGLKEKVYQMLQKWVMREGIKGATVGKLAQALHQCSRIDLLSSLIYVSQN
UniProt Q9Y572: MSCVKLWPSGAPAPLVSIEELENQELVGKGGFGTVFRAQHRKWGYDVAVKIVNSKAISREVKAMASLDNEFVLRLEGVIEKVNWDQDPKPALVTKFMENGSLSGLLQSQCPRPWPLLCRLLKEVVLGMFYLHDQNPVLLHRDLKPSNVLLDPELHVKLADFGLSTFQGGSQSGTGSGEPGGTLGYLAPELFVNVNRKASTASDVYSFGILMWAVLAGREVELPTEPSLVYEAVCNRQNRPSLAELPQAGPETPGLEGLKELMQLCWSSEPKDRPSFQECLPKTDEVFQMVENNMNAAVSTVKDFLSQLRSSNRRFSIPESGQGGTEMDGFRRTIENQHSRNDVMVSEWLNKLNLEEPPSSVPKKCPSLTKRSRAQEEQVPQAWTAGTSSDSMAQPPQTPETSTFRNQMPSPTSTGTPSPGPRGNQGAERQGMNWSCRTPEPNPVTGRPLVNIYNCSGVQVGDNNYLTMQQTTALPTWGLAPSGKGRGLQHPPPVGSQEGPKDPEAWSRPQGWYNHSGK

How the values were obtained:
[1] = target: Myc-tagged cIAP2 expressed in HEK293T cells (UniProt Q13489)
[2] = target: FLAG-tagged cIAP1 expressed in HEK293T cells (UniProt Q13490)
GST-XIAP fusion protein [3] = target: GST-XIAP fusion protein (UniProt P98170)
GST-XIAP fusion protein [4] = target: GST-XIAP fusion protein (UniProt P98170); remark: listed apart in the source
GST-cIAP2 fusion protein [5] = target: GST-cIAP2 fusion protein (UniProt Q13489)
GST-cIAP1 fusion protein [6] = target: GST-cIAP1 fusion protein (UniProt Q13490)
GST-cIAP2 fusion protein [7] = target: GST-cIAP2 fusion protein (UniProt Q13489); remark: listed apart in the source
GST-cIAP1 fusion protein [8] = target: GST-cIAP1 fusion protein (UniProt Q13490); remark: listed apart in the source

Measured: binding

VSV-tagged human RIP1 expressed in HEK293T cells (from UniProt Q13546 1-671)
binds: [1] | [2]

VSV-tagged human RIP1, in vitro transcribed and translated, 35S-methionine labelled (from UniProt Q13546 1-671)
binds: GST-XIAP fusion protein [3] | GST-XIAP fusion protein [4] | GST-cIAP2 fusion protein [5] | GST-cIAP1 fusion protein [6]

VSV-tagged human RIP3 expressed in HEK293T cells (from UniProt Q9Y572 1-518)
binds: [1] | [2]

VSV-tagged human RIP3, in vitro transcribed and translated, 35S-methionine labelled (from UniProt Q9Y572 1-518)
not listed: [1] | [2]
binds: all other assays above

B1: VSV-tagged human RIP4, in vitro transcribed and translated, 35S-methionine labelled (protein, UniProt P57078 1-832)
chain: MEGDGGTPWALALLRTFDAGEFTGWEKVGSGGFGQVYKVRHVHWKTWLAIKCSPSLHVDDRERMELLEEAKKMEMAKFRYILPVYGICREPVGLVMEYMETGSLEKLLASEPLPWDLRFRIIHETAVGMNFLHCMAPPLLHLDLKPANILLDAHYHVKISDFGLAKCNGLSHSHDLSMDGLFGTIAYLPPERIREKSRLFDTKHDVYSFAIVIWGVLTQKKPFADEKNILHIMVKVVKGHRPELPPVCRARPRACSHLIRLMQRCWQGDPRVRPTFQGNGLNGELIRQVLAALLPVTGRWRSPGEGFRLESEVIIRVTCPLSSPQEITSETEDLCEKPDDEVKETAHDLDVKSPPEPRSEVVPARLKRASAPTFDNDYSLSELLSQLDSGVSQAVEGPEELSRSSSESKLPSSGSGKRLSGVSSVDSAFSSRGSLSLSFEREPSTSDLGTTDVQKKKLVDAIVSGDTSKLMKILQPQDVDLALDSGASLLHLAVEAGQEECAKWLLLNNANPNLSNRRGSTPLHMAVERRVRGVVELLLARKISVNAKDEDQWTALHFAAQNGDESSTRLLLEKNASVNEVDFEGRTPMHVACQHGQENIVRILLRRGVDVSLQGKDAWLPLHYAAWQGHLPIVKLLAKQPGVSVNAQTLDGRTPLHLAAQRGHYRVARILIDLCSDVNVCSLLAQTPLHVAAETGHTSTARLLLHRGAGKEAMTSDGYTALHLAARNGHLATVKLLVEEKADVLARGPLNQTALHLAAAHGHSEVVEELVSADVIDLFDEQGLSALHLAAQGRHAQTVETLLRHGAHINLQSLKFQGGHGPAATLLRRSKT
modifications: 35S-methionine labelled
not listed: [1] | [2]
binds: all other assays above

B2: VSV-tagged human RIP4 expressed in HEK293T cells (protein, UniProt P57078 1-832)
chain: B1 chain
binds: [1] | [2]
